Test results reported in patent US11149009B2, “Fused piperidinyl bicyclic and related compounds as modulators of C5A receptor” (InflaRx GmbH, priority 2019, dated 2021).

Chains of the proteins cited; added tags and fusions are not shown.
UniProt P21730, whole entry: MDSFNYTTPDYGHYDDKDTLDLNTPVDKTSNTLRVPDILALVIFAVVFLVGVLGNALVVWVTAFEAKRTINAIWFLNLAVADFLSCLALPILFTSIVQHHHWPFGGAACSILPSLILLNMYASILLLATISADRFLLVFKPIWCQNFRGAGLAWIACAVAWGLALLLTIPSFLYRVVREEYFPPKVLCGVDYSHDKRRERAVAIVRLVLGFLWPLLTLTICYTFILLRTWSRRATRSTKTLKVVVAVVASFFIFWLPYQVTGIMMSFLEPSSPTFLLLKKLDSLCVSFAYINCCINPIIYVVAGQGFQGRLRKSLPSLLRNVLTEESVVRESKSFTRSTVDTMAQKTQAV

Target: C5a receptor (Homo sapiens (Human), UniProt P21730)
Experiment: Calcium mobilization assay (C5a-induced, U937 cells)
Settings: inhibition of C5a-induced calcium mobilization
Description: U937 cells (ATCC® CRL-1593.2) were cultivated in RPMI1640 medium supplemented with 10% fetal bovine serum in a standard cell culture incubator. The day before conducting the assay, Dibutyryl-cAMP (0.5 mM working concentration) was added to cell cultures. Next day, cells were spun and resuspended in RPMI 1640 to a concentration of 40,000 cells per 50 μl. 40,000 cells were plated in one well in a 96 well poly-D-lysine coated plate for two hours to allow cells to adhere. After cell adherence, cytoplasmic calcium^++ indicator (FLIPR Calcium 6 Assay Kit, Molecular Devices) was added to each well and incubated for 75 minutes at 37° C. Test compounds were diluted using a robotic liquid handler. […] The cell culture plates were then incubated at room temperature for 30 minutes before being placed into Flexstation-3 plate reader (Molecular Devices). The Flexstation-3 was programmed to add recombinant C5a protein at various concentrations (1 nM to 10 nM) to cell culture plates and to monitor the change of fluorescence intensity, which correlates with cytoplasmic calcium concentration. […]
The half maximal inhibitory concentrations, i.e. IC50, were determined in biological assays, such as calcium mobilization assay. Using the calcium mobilization assay the following IC50 values were determined by the best dose-response curve fitting method. […]

With `Cc1ccc(NC(=O)[C@H]2C[C@@H](C(F)(F)F)CN(C(=O)c3c(C)cccc3C)[C@H]2c2ccc(NC3CCCC3)cc2)cc1C(F)(F)F` the IC50 was < 0.01 µM.

The structures given here were assigned with low confidence; some may be wrong.
